In the assay the target is NAT10 (N-acetyltransferase 10) in BGC823 and MGC803 cell lysates (human (in BGC823 and MGC803 cells)) (UniProt Q9H0A0). The assay is described as follows: co-IP; lysates of BGC823 and MGC803 cells cultured in 25 mM glucose medium or glucose-free medium containing leupeptin (10 uM) for 6 or 12 h; lysate incubated with the indicated antibodies overnight at 4 °C, Protein A+G beads, Western blot. On the technique in general: Immunoblotting shows a protein as a band on a membrane.

Amino acid sequences for entries named in this document (tags omitted).
UniProt Q9H0A0: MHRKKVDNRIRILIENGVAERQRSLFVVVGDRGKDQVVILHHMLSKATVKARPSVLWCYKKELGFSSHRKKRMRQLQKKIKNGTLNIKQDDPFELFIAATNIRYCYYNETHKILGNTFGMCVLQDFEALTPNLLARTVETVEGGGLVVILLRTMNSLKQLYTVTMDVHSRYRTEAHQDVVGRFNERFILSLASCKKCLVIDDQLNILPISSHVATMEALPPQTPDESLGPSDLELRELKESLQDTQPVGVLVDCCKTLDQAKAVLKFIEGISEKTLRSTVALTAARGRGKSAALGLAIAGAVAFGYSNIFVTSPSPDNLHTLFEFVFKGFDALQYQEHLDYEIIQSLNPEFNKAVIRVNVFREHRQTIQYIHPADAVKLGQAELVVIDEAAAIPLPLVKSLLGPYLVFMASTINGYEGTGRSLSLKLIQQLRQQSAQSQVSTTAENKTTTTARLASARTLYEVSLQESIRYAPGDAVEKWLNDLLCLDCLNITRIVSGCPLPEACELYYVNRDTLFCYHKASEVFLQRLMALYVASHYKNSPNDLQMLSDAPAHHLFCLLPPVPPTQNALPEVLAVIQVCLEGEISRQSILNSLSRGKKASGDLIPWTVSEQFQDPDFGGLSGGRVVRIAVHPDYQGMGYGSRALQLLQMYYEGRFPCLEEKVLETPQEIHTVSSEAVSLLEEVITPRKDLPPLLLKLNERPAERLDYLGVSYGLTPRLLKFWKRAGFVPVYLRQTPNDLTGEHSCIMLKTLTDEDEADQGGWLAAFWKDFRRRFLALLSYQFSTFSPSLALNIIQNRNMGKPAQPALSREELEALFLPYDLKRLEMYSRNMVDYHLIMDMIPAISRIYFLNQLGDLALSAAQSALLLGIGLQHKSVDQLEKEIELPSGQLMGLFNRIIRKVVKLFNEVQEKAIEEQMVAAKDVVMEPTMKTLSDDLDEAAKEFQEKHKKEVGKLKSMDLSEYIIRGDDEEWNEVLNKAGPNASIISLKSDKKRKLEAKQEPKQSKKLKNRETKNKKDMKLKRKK

No constants are given. Whether binding was seen depends on the method and setting. Binding seen in cells or lysates may run through a third protein. Some binding calls cover weakened binding; strength is not graded here.

Consider “microtubule-associated protein 1 light chain 3 alpha (LC3) (from UniProt Q9H492 1-121)”, for which the binding entry is given as “binds”.
In the case of “sequestosome 1 (SQSTM1)/p62 (from UniProt Q13501 1-440)” it was “binds”.
